Laboratory results from article PMC12040169 (PLOS Biology, 2025).
The list shows a part of the results.

test system: T1, CTL2-GFP (C. trachomatis L2/434/Bu, GFP-expressing); design: species or system HeLa; Intracellular C. trachomatis growth in HeLa cells, bulk GFP fluorescence relative to DMSO; details: bulk GFP, single well; 28.5 h, 10 µM; inhibitor
T1 construct: L2/434/Bu, GFP-expressing

Structure (SMILES)	% of control remaining [%]
CC(C)(CN1CCCC1)NC(=O)N1CCN(Cc2cccc(O)c2)CC1 [CBK307380]	135.413
CCN(CCc1ccccn1)S(=O)(=O)c1ccc(OC(F)(F)F)cc1 [CBK044968]	54.3492
CN1CCN(S(=O)(=O)c2ccc(N3CCOCC3)nc2)CC1 [CBK062434]	131.6
c1ccc2sc(SCc3nc4c5c6c(sc5ncn4n3)CCCC6)nc2c1 [CBK262923]	116.444
O=C(CCN1CCN(CCO)CC1)Nc1ccc2c(c1)CCC2 [CBK264262C]	111.39
O=C(N/N=C/c1ccccc1O)c1cccc(C(=O)N/N=C/c2ccccc2O)n1 [CBK261459]	96.7113
O=C(CC(CN1CCN(CC(=O)N2CCCC2)CC1)C(=O)O)Nc1ccccc1 (stereo not shown) [CBK286844]	121.06
Cc1ccc(-c2csc(CC#N)n2)cc1 [CBK047576]	115.401
O=C1NC/C=C/CC2(CCN(Cc3ccc(Cl)cn3)CC2)C(=O)NCCOc2ccccc21 [CBK292008]	166.146
Cc1nn(CCC#N)c2nc(-c3ccc(F)cc3)cc(C(=O)O)c12 [CBK296974]	126.361
CCn1c(C)nc2cc(NC(=O)Cn3cnc4ccccc43)ccc21 [CBK281832]	138.382
O=C(Nc1cc(Oc2cncc(Cl)c2)cc([N+](=O)[O-])c1)c1nn2c(C(F)(F)F)cc(-c3cccs3)nc2c1Cl [CBK262585]	98.8036
CC1(C)Cc2c(cnn2-c2ccc(F)cc2)C(N)C1 (stereo not shown) [CBK288200]	143.843
COCCN1CCN(c2cncc(-c3ccc(O)cc3)n2)CC1 [CBK126951T]	130.276
Cc1c(C(=O)N2CCCCC2C(N)=O)nnn1Cc1ccc(F)cc1F (stereo not shown) [CBK304425]	147.503
CC(C)(C)NC(=O)CN1CCN(C(=O)CSc2n[nH]c(=O)n2C2CC2)CC1 [CBK295641]	118.453
CCOC(=O)c1c(NC(=O)c2cc(-c3ccc(Cl)s3)nc3ccccc23)sc(C)c1CC [CBK262657]	110.94
Fc1ccc(-c2noc([C@@H]3CCCN3Cc3ncc[nH]3)n2)nc1 [CBK288897]	109.121
COc1cc(OC)c(C(C)=O)c(OCCOc2nccnc2N2CCNCC2)c1 [CBK013497T]	107.566
Nn1c(=O)c2ccccc2n2c(SCC(=O)N(c3ccccc3)c3ccccc3)nnc12 [CBK266621]	166.655
CCCC(=O)Nc1ccc(N2CCNCC2)c2ccccc12 [CBK024619T]	133.818
CN(C)C(=O)c1cc(-c2ccccc2)cnc1N(C)S(C)(=O)=O [CBK076473]	103.826
CC(CC(=O)NC1(C#Cc2nccs2)CCCCC1)n1ccnc1 (stereo not shown) [CBK284746]	79.2689
CN(C)[C@@H]1CN(Cc2ccccc2O)C[C@H]1c1cn(C)c2ccccc12 [CBK284895]	127.131
O=C(NCc1csc2c1CCCC2)N1CC(c2ccccn2)C1 [CBK307499]	119.639
COc1cc(C(=O)N2CCCC3(CCN(C(=O)c4ccoc4)C3)C2)cc(OC)c1OC (stereo not shown) [CBK131637]	94.5043
O=C(O)C1CCN(S(=O)(=O)c2ccccc2[N+](=O)[O-])CC1 [CBK265267]	100

Look-ups from the results shown:
% of control remaining [%] with Cc1nn(CCC#N)c2nc(-c3ccc(F)cc3)cc(C(=O)O)c12 [CBK296974] is entered as 126.361
% of control remaining [%] with CC1(C)Cc2c(cnn2-c2ccc(F)cc2)C(N)C1 (stereo not shown) [CBK288200] is entered as 143.843
% of control remaining [%] with O=C(CC(CN1CCN(CC(=O)N2CCCC2)CC1)C(=O)O)Nc1ccccc1 (stereo not shown) [CBK286844] is entered as 121.06

(list continues)

Structure (SMILES)	% of control remaining [%]
CS(=O)(=O)c1ccc(-c2ccc(C(=O)NCc3cccc(C(F)(F)F)c3)cn2)cc1 [CBK158874]	101.937
CCCn1cc(S(=O)(=O)N2CCCC2c2ccc(Nc3cccc(C)n3)cn2)c(C)n1 (stereo not shown) [CBK286258]	123.453
S=C(NCC1CCCCC1)Nc1ncc(Cl)cc1Cl [CBK067053]	95.6363
Cc1cc(O)cc(C2CCCN(C(=O)c3cccc(F)c3)C2)n1 (stereo not shown) [CBK283440]	102.049
CN(C(=O)CN1CCCCC1Cn1cccn1)C1(C#N)CCCCC1 (stereo not shown) [CBK305412]	108.362
c1ccc(C(Nc2ncc(-c3cnccn3)c(-c3ccco3)n2)c2ccccc2)cc1 [CBK286413]	108.853
C(=C\c1ccccc1)/CN1CCN(CCc2ccccc2)CC1 [CBK261893]	98.6926
CC(C)c1ccc(S(=O)(=O)Nc2ccc(OC(F)F)cc2)cc1 [CBK044565]	79.2992
COCCCN(Cc1cc(F)cc(F)c1)Cc1ccccn1 [CBK282975]	112.953
S=C(NCCC(c1ccccc1)c1ccccc1)Nc1ccc(Cl)c(Cl)c1 [CBK263972]	115.933
Cc1ccc(O)c(NC(=O)Cn2nc([N+](=O)[O-])c(Br)c2C)c1 [CBK261718]	104.894
O=C(c1ccccc1F)N1CCC(n2cnc3cccnc32)CC1 [CBK283937]	129.524
O=S(=O)(Nc1nccnc1-c1cccs1)c1ccccc1Cl [CBK050775]	100
CSc1nc2ncnc(N3CCC(O)CC3)c2s1 [CBK022082]	100
CC1CCN(c2nc(-c3ccccc3O)nc3ccccc23)CC1 [CBK066899]	112.274
COc1ccc(CN2CCN(C(=O)c3cccc(N(C)C)c3)CC2)cc1 [CBK305713]	115.754
COc1ccc2c(c1)CC(=O)NC21CCN(C(=O)CCCC(=O)O)CC1 [CBK047208]	119.771
O=C1CCN(Cc2ccccc2)CCN1C(=O)c1cccs1 [CBK284828]	111.403
CC(=O)N1CCN(c2ccc(NC(=O)C3C(C(=O)O)C3(C)C)cc2)CC1 (stereo not shown) [CBK300545]	148.934
CC(C)Nc1nccnc1Sc1cccc2ccccc12 [CBK089493]	100.393
O=C1CCN(C(=O)c2ccccn2)CCN1Cc1cccc(F)c1 [CBK284467]	126.935
Oc1ccc(Cn2cnc3ccccc32)c2cccnc12 [CBK291202]	41.6373
N#Cc1ccccc1Cn1cc(C(=O)C(N)=O)c2ccccc21 [CBK269862]	107.103
Cc1cc(C(=O)NCCn2ccnc2C)c2ccccc2n1 [CBK281895]	119.778
CC(C)CC1C(C#N)=C(N)Oc2n[nH]c(-c3cccs3)c21 (stereo not shown) [CBK267449]	107.769
Cc1cccc(NC(=S)N2CCN(Cc3ccc4c(c3)OCO4)CC2)c1C [CBK264919]	100
Clc1ccc(-c2cncc(NCCc3ccncc3)n2)cc1 [CBK065787]	132.34

Structure (SMILES)	% of control remaining [%]
Cc1cc(C(=O)Nc2ccccc2C(=O)O)ccc1NC(=O)CC(C)C [CBK263616]	101.1
C=CCn1c2ccccc2c2nnc(SC(CC)C(=O)N3c4ccccc4Sc4ccccc43)nc21 (stereo not shown) [CBK263040]	100
Cc1cccc(OCC(=O)Nc2sc3c(c2C(N)=O)CCC3)c1C [CBK269729]	132.958
c1cncc(-c2ccc(N3CCN(CCN4CCCC4)CC3)nc2)c1 [CBK037661]	171.423
CCNC(=O)N1CC2(CCN(Cc3ccc4nsnc4c3)CC2)c2ccccc21 [CBK136968]	109.507
CSc1nc(O)c(C(c2ccc(Cl)cc2)c2c(O)nc(SC)nc2O)c(O)n1 [CBK265306]	128.754
O=C(O)CC1S/C(=N/N=C/c2ccc(-c3ccc(Cl)cc3[N+](=O)[O-])o2)NC1=O (stereo not shown) [CBK264507]	110.208
CCN(CC(=O)NC(C)C)Cc1csc(-c2ccc(F)cc2)n1 [CBK305849]	100.474
Cc1csc(NC(=O)CN2CC=C(c3ccc(C)o3)CC2)n1 [CBK283606]	130.227
CC(C)NC(=O)c1cccc2c1CCCN2Cc1nc2ccccc2o1 [CBK295135]	145.297
CNC(=O)NC(=O)C1CCN(CCOc2ccccc2)CC1 [CBK034959]	65.2751
Cc1nc2c(c(=O)[nH]1)CN(Cc1c(C)oc3ccccc13)CC2 [CBK283984]	110.438
COc1cc(NC(=O)COc2cc(C)cc(C)c2)c(C(=O)O)cc1OC [CBK268650]	129.973
O=C(CCN1CCOCC1)N/N=C\c1cccs1 [CBK005035]	120.206
O=C(NCc1cccnc1OCC(F)(F)F)c1ccc(=O)[nH]n1 [CBK305578]	128.363
CC(C)(CO)Cn1c(=O)[nH]c2ncc(-c3ccc(C(N)=O)cc3)nc21 [CBK064787]	135.869
CC(CC(=O)C1C(C)C=CCC1(C)C)NNC(=O)c1ccccc1O (stereo not shown) [CBK262980]	91.6123
Clc1cc(CSc2nnnn2-c2ccccc2)cc2c1OCCCO2 [CBK297159]	115.47
CC(C)CC(NC(=O)C1CCC(C)CC1)C(=O)O (stereo not shown) [CBK287212]	114.875
Cc1ccc(NC(=O)N(Cc2ccccc2Br)CC(C)(C)CN)cc1[N+](=O)[O-] [CBK002436C]	59.1218
COc1ccc(C(=O)Nc2nc(-c3nc4ccccc4s3)cs2)cc1 [CBK287563]	148.945
COc1ccc(C2N3CCCN2CC3)cc1 (stereo not shown) [CBK067068]	126.181
CS(=O)(=O)c1ccc(-c2ccnc3nc(N)ccc23)cc1 [CBK067648]	126.224
COc1ccc(C)cc1S(=O)(=O)n1ccc2c(OC3CCCN(C)C3)nccc21 (stereo not shown) [CBK051582C]	146.805
CC(C)CC(NC(=O)c1ccccc1)C(=O)OCC(=O)Nc1nc2ccccc2s1 (stereo not shown) [CBK085134]	118.039
